Where a chain is given by its changes, count along the chain named. The exact form of at least one protein or probe is not confirmed. For part of these data: Protein sequences can lack the tags named with them.
How the values were obtained:
Assay in all cases: EMSA
[1] = biological target: T1, OrfAB-GFP GMF13 S57G S72G (UniProt P51026); conditions: 20 mM Tris-Cl pH 8.0, 1 mM EDTA, 5 ug/mL calf thymus DNA, 10 nM DNA, 0.11-0.13 uM protein, 30 min at 20 C; gels at 4 C; recombinant protein; protein details: 6xHis, C-terminal GFPuv; label: 5'-32P upper strand
T1 sequence (looked up, limits assumed): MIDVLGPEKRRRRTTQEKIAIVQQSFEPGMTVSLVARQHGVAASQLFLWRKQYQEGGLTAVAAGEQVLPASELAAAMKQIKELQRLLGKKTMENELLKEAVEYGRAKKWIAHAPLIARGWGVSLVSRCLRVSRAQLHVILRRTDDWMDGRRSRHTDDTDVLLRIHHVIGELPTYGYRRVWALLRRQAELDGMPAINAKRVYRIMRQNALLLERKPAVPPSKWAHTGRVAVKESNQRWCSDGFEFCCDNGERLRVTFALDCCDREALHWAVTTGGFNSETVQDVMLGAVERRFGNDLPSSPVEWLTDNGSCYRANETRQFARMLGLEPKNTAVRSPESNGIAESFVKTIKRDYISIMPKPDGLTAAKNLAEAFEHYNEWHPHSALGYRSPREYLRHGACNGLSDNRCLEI

OrfAB-GFP GMF9 R50H R65H = biological target: T2, OrfAB-GFP GMF9 R50H R65H (UniProt P51026); conditions: 20 mM Tris-Cl pH 8.0, 1 mM EDTA, 5 ug/mL calf thymus DNA, 10 nM DNA, 0.11-0.13 uM protein, 30 min at 20 C; gels at 4 C; recombinant protein; protein details: 6xHis, C-terminal GFPuv; label: 5'-32P upper strand
T2 sequence (looked up, limits assumed): T1 sequence (looked up, limits assumed) with R50H, G57S

[2] = biological target: T3, OrfAB-GFP GMF38 A341T A356T (UniProt P51026); conditions: 20 mM Tris-Cl pH 8.0, 1 mM EDTA, 5 ug/mL calf thymus DNA, 10 nM DNA, 0.11-0.13 uM protein, 30 min at 20 C; gels at 4 C; recombinant protein; protein details: 6xHis, C-terminal GFPuv; label: 5'-32P upper strand
T3 sequence (looked up, limits assumed): T1 sequence (looked up, limits assumed) with G57S, A341T

[3] = biological target: T4, OrfAB-GFP GMF106 L83V L98V (UniProt P51026); conditions: 20 mM Tris-Cl pH 8.0, 1 mM EDTA, 5 ug/mL calf thymus DNA, 10 nM DNA, 0.11-0.13 uM protein, 30 min at 20 C; gels at 4 C; recombinant protein; protein details: 6xHis, C-terminal GFPuv; label: 5'-32P upper strand; counted as no binding
T4 sequence (looked up, limits assumed): T1 sequence (looked up, limits assumed) with G57S, L68V, L83V

[4] = biological target: OrfAB-GFP GMF29 L58I L73I (UniProt P51026); conditions: 20 mM Tris-Cl pH 8.0, 1 mM EDTA, 5 ug/mL calf thymus DNA, 10 nM DNA, 0.11-0.13 uM protein, 30 min at 20 C; gels at 4 C; recombinant protein; protein details: 6xHis, C-terminal GFPuv; label: 5'-32P upper strand; counted as no binding
GFP control = conditions: 20 mM Tris-Cl pH 8.0, 1 mM EDTA, 5 ug/mL calf thymus DNA, 10 nM DNA, 0.11-0.13 uM protein, 30 min at 20 C; gels at 4 C; recombinant protein; label: 5'-32P upper strand; counted as no binding

For “GGATCCTTAAGTGATAACAGATGTCTGGAAATATAGGGGCAAATCCAGCG (double strand) [IRR 50-mer]”, the binding signal (binding score (0-5)) [1] was 3, the binding signal (binding score (0-5)) (OrfAB-GFP GMF9 R50H R65H) was 3 and the binding signal (binding score (0-5)) [2] was 5. For the same sequence, the binding signal (binding score (0-5)) [3] was 0, the binding signal (binding score (0-5)) [4] was 0 and the binding signal (binding score (0-5)) (GFP control) was 0.
